The results in this text go back to publication PMC4196162.

The target in assay [1] is T1, BCL9-2 in primary K19-BCL9-2 mouse mammary tumor cells (mouse (endogenous in primary K19-BCL9-2 mouse tumor cells)) (UniProt Q67FY2).
T1 sequence: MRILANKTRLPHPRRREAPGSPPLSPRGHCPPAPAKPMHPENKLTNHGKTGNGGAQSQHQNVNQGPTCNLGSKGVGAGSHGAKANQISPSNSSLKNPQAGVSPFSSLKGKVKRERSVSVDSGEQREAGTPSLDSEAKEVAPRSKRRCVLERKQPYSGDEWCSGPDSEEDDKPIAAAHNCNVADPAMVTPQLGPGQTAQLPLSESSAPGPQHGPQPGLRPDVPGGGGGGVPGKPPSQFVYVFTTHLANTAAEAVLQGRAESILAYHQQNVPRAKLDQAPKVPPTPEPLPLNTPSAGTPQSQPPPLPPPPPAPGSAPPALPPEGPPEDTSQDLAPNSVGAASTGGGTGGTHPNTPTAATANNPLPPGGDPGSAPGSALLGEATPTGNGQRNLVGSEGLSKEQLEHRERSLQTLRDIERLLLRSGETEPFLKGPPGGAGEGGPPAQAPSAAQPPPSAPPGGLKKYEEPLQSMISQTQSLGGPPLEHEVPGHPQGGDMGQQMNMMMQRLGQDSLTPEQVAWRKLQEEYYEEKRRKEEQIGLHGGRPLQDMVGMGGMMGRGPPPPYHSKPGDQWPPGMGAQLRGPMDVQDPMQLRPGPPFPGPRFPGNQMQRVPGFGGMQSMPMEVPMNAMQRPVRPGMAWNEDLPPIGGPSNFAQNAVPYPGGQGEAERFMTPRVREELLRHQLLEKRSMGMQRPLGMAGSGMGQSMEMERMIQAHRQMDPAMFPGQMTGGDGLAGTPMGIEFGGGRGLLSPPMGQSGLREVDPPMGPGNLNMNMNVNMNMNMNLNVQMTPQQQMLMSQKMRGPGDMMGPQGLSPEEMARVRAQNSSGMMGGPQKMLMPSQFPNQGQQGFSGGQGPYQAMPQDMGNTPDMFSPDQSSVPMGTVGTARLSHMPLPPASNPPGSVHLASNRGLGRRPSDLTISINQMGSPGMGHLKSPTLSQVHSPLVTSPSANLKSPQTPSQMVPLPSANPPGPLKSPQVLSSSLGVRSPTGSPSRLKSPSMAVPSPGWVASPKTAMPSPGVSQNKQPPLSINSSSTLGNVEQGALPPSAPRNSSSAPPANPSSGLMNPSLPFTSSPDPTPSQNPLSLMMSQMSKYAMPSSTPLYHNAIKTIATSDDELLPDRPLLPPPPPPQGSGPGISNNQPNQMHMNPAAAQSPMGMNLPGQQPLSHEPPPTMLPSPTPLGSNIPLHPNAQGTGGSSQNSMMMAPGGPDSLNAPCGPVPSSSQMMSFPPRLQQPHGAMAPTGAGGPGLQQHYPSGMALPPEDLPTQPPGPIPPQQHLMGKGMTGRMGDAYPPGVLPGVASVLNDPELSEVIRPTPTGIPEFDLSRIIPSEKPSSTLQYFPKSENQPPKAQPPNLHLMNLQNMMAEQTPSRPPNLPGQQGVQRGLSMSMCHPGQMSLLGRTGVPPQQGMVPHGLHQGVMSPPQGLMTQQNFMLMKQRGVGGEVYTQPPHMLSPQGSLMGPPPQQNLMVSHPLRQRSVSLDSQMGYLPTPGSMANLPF
Briefly: co-IP; primary K19-BCL9-2 mouse mammary tumor cells, whole cell lysates, Protein A sepharose; Western blot. A general note: Immunoblotting shows a protein as a band on a membrane.

Assay [2] deals with Pygo2 (mouse) (mouse (endogenous in primary K19-BCL9-2 mouse tumor cells)). The assay is described as above.

These are yes or no findings as the source states them, for the method shown. Binding seen in cells or lysates may run through a third protein. Binding calls can cover weak binding; strength is not graded here.

For the molecule Pygo2 (mouse), in assay [1], the binding entry is “binds”.

B1: BCL9-2 in primary K19-BCL9-2 mouse mammary tumor cells (protein, UniProt Q67FY2 1-1494)
chain: MRILANKTRLPHPRRREAPGSPPLSPRGHCPPAPAKPMHPENKLTNHGKTGNGGAQSQHQNVNQGPTCNLGSKGVGAGSHGAKANQISPSNSSLKNPQAGVSPFSSLKGKVKRERSVSVDSGEQREAGTPSLDSEAKEVAPRSKRRCVLERKQPYSGDEWCSGPDSEEDDKPIAAAHNCNVADPAMVTPQLGPGQTAQLPLSESSAPGPQHGPQPGLRPDVPGGGGGGVPGKPPSQFVYVFTTHLANTAAEAVLQGRAESILAYHQQNVPRAKLDQAPKVPPTPEPLPLNTPSAGTPQSQPPPLPPPPPAPGSAPPALPPEGPPEDTSQDLAPNSVGAASTGGGTGGTHPNTPTAATANNPLPPGGDPGSAPGSALLGEATPTGNGQRNLVGSEGLSKEQLEHRERSLQTLRDIERLLLRSGETEPFLKGPPGGAGEGGPPAQAPSAAQPPPSAPPGGLKKYEEPLQSMISQTQSLGGPPLEHEVPGHPQGGDMGQQMNMMMQRLGQDSLTPEQVAWRKLQEEYYEEKRRKEEQIGLHGGRPLQDMVGMGGMMGRGPPPPYHSKPGDQWPPGMGAQLRGPMDVQDPMQLRPGPPFPGPRFPGNQMQRVPGFGGMQSMPMEVPMNAMQRPVRPGMAWNEDLPPIGGPSNFAQNAVPYPGGQGEAERFMTPRVREELLRHQLLEKRSMGMQRPLGMAGSGMGQSMEMERMIQAHRQMDPAMFPGQMTGGDGLAGTPMGIEFGGGRGLLSPPMGQSGLREVDPPMGPGNLNMNMNVNMNMNMNLNVQMTPQQQMLMSQKMRGPGDMMGPQGLSPEEMARVRAQNSSGMMGGPQKMLMPSQFPNQGQQGFSGGQGPYQAMPQDMGNTPDMFSPDQSSVPMGTVGTARLSHMPLPPASNPPGSVHLASNRGLGRRPSDLTISINQMGSPGMGHLKSPTLSQVHSPLVTSPSANLKSPQTPSQMVPLPSANPPGPLKSPQVLSSSLGVRSPTGSPSRLKSPSMAVPSPGWVASPKTAMPSPGVSQNKQPPLSINSSSTLGNVEQGALPPSAPRNSSSAPPANPSSGLMNPSLPFTSSPDPTPSQNPLSLMMSQMSKYAMPSSTPLYHNAIKTIATSDDELLPDRPLLPPPPPPQGSGPGISNNQPNQMHMNPAAAQSPMGMNLPGQQPLSHEPPPTMLPSPTPLGSNIPLHPNAQGTGGSSQNSMMMAPGGPDSLNAPCGPVPSSSQMMSFPPRLQQPHGAMAPTGAGGPGLQQHYPSGMALPPEDLPTQPPGPIPPQQHLMGKGMTGRMGDAYPPGVLPGVASVLNDPELSEVIRPTPTGIPEFDLSRIIPSEKPSSTLQYFPKSENQPPKAQPPNLHLMNLQNMMAEQTPSRPPNLPGQQGVQRGLSMSMCHPGQMSLLGRTGVPPQQGMVPHGLHQGVMSPPQGLMTQQNFMLMKQRGVGGEVYTQPPHMLSPQGSLMGPPPQQNLMVSHPLRQRSVSLDSQMGYLPTPGSMANLPF
Turning to B1, in assay [2], the binding result is “binds”.
